Assay: Appearance / color change of the treated clothes
Format: physicochemical
Details: 5% treatment solution, dried at 110° C. for 2 minutes

SMILES | Appearance (PET cloth) | Appearance (cotton broadcloth)
CC(=O)N1C[C@H](O)C[C@H]1C(=O)O [N-acetyl-trans-4-hydroxy-L-proline] | White | White
O=C(OC[C@H]1O[C@@H](OC(=O)c2cc(O)c(O)c(OC(=O)c3cc(O)c(O)c(O)c3)c2)[C@H](OC(=O)c2cc(O)c(O)c(OC(=O)c3cc(O)c(O)c(O)c3)c2)[C@@H](OC(=O)c2cc(O)c(O)c(OC(=O)c3cc(O)c(O)c(O)c3)c2)[C@@H]1OC(=O)c1cc(O)c(O)c(OC(=O)c2cc(O)c(O)c(O)c2)c1)c1cc(O)c(O)c(OC(=O)c2cc(O)c(O)c(O)c2)c1 [tannic acid] | Light brown | Light brown
